± gives the standard deviation of the averaged measurements. Small differences around the control level are noise.
Assays:
Test in all cases: level (log10 ratio to DMSO vehicle control); higher = higher biomarker level / cell amount than vehicle control
[1] = compound: C=C(C)C(=O)OCC(F)(F)C(F)(F)C(F)(F)C(F)(F)C(F)(F)C(F)(F)C(F)(F)F; conditions: in DMSO
Procedure: (§1)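 BioMAP Diversity Plus panel of 12 human primary cell co-culture systems (3C, 4H, LPS, SAg, BT, BF4T, BE3C, CASM3C, HDF3CGF, KF3CT, MyoF, Mphg). Compounds were added 1 h before stimulation and left for 24 h (MyoF 48 h; BT 72 h for soluble read-outs or 6 d for IgG). Biomarkers were read by ELISA, cytotoxicity by SRB, PBMC viability and proliferation by Alamar Blue. Each well value was divided by the mean of 8 DMSO control wells on the same plate and log10 transformed; duplicate blinded samples were tested at 4 concentrations.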

[2] = compound: C=CC(=O)OCC(F)(F)C(F)(F)C(F)(F)C(F)(F)C(F)(F)C(F)(F)C(F)(F)F [1H,1H-Perfluorooctyl acrylate]; conditions: 2200 nM; in DMSO
Procedure: as §1

[3] = compound: C=CC(F)(F)C(F)(F)C(F)(F)C(F)(F)C(F)(F)C(F)(F)C(F)(F)C(F)(F)C=C [1,8-Divinylperfluorooctane]; conditions: in DMSO
Procedure: as §1

[4] = compound: COC(=O)C(F)(F)C(F)(F)OC(F)(C(F)(F)F)C(F)(F)OC(F)=C(F)F [Methyl perfluoro(3-(1-ethenyloxypropan-2-yloxy)propanoate)]; conditions: in DMSO
Procedure: as §1

[5] = compound: CO[Si](C)(CCC(F)(F)C(F)(F)C(F)(F)C(F)(F)C(F)(F)C(F)(F)F)OC [Dimethoxymethyl((perfluorohexyl)ethyl)silane]; conditions: in DMSO
Procedure: as §1

[6] = compound: FC(F)(F)C(F)(F)C(F)(F)CC1CO1 [1H,1H-Heptafluorobutyl epoxide]; conditions: 2200 nM; in DMSO
Procedure: as §1

Heptafluorobutyl iodide = compound: FC(F)(F)C(F)(F)C(F)(F)CI [Heptafluorobutyl iodide]; conditions: 2200 nM; in DMSO
Procedure: as §1

[7] = compound: NC(=O)C(F)(F)C(F)(F)C(F)(F)C(F)F; conditions: in DMSO
Procedure: as §1

Pentafluoropropionamide = compound: NC(=O)C(F)(F)C(F)(F)F [Pentafluoropropionamide]; conditions: 2200 nM; in DMSO
Procedure: as §1

[8] = compound: NS(=O)(=O)C(F)(F)C(F)(F)C(F)(F)C(F)(F)C(F)(F)C(F)(F)C(F)(F)C(F)(F)F [Perfluorooctanesulfonamide]; conditions: in DMSO
Procedure: as §1

[9] = compound: O=C(O)C(F)(F)C(F)(F)C(F)F [4H-Perfluorobutanoic acid]; conditions: in DMSO
Procedure: as §1

[10] = compound: O=P(O)(O)CCC(F)(F)C(F)(F)C(F)(F)C(F)(F)C(F)(F)C(F)(F)F [2-(Perfluorohexyl)ethylphosphonic acid]; conditions: 2200 nM; in DMSO
Procedure: as §1

[11] = compound: O=S(=O)(F)C(F)(F)C(F)(F)C(F)(F)C(F)(F)C(F)(F)C(F)(F)C(F)(F)C(F)(F)F [Perfluorooctanesulfonyl fluoride]; conditions: 2200 nM; in DMSO
Procedure: as §1

[12] = compound: O=S(=O)(O)C(F)(F)C(F)(F)C(F)(F)C(F)(F)C(F)(F)C(F)(F)C(F)(F)C(F)(F)F [Perfluorooctanesulfonic acid]; conditions: 2200 nM; in DMSO
Procedure: as §1

[13] = compound: O=S(=O)(O)C(F)(F)C(F)(F)C(F)(F)C(F)(F)C(F)(F)C(F)(F)C(F)(F)C(F)(F)F [Potassium perfluorooctanesulfonate]; conditions: 2200 nM; in DMSO
Procedure: as §1

[14] = compound: O=S(=O)(OCC(F)(F)F)C(F)(F)C(F)(F)C(F)(F)C(F)(F)F [2,2,2-Trifluoroethyl perfluorobutanesulfonate]; conditions: 2200 nM; in DMSO
Procedure: as §1

[15] = compound: OCC(F)(F)C(F)(F)C(F)(F)C(F)(F)C(F)(F)C(F)F [1H,1H,7H-Dodecafluoro-1-heptanol]; conditions: 2200 nM; in DMSO
Procedure: as §1

[16] = compound: OCCCCC(F)(F)C(F)(F)C(F)(F)C(F)(F)F [4:4 Fluorotelomer alcohol]; conditions: 2200 nM; in DMSO
Procedure: as §1

Test System	level (log10) ([1]; 740 nM)	level (log10) ([1]; 2200 nM)	level (log10) [2]	level (log10) ([3]; 740 nM)	level (log10) ([3]; 2200 nM)	level (log10) ([4]; 740 nM)	level (log10) ([4]; 2200 nM)	level (log10) ([5]; 740 nM)	level (log10) ([5]; 2200 nM)	level (log10) [6]	level (log10) (Heptafluorobutyl iodide)	level (log10) ([7]; 2200 nM)	level (log10) ([7]; 6700 nM)	level (log10) ([7]; 20000 nM)	level (log10) ([7]; 60000 nM)	level (log10) (Pentafluoropropionamide)	level (log10) ([8]; 2200 nM)	level (log10) ([8]; 6700 nM)	level (log10) ([8]; 20000 nM)	level (log10) ([9]; 2200 nM)	level (log10) ([9]; 6700 nM)	level (log10) ([9]; 20000 nM)	level (log10) ([9]; 60000 nM)	level (log10) [10]	level (log10) [11]	level (log10) [12]	level (log10) [13]	level (log10) [14]	level (log10) [15]	level (log10) [16]
HDF3CGF:MMP-1	0.002 ± 0.0085	0.002 ± 0.0014	0.0315 ± 0.016	-0.008 ± 0.028	0.0005 ± 0.025	-0.0205 ± 0.032	0.015 ± 0.0057	-0.0015 ± 0.03	0.0055 ± 0.035	0.0275 ± 0.005	-0.018 ± 0.04	-0.007 ± 0.0071	0.0005 ± 0.00071	-0.006 ± 0.0042	0.003 ± 0.0071	-0.004 ± 0.024	-0.004 ± 0.018	0.0145 ± 0.026	-0.206 ± 0.096	0.007 ± 0.0099	0.0005 ± 0.0021	-0.0025 ± 0.0035	0.0075 ± 0.021	-0.0145 ± 0.005	0.005 ± 0.0042	-0.0085 ± 0.0078	-0.0015 ± 0.0092	0.005 ± 0.0014	0.0175 ± 0.0092	0 ± 0.0071
HDF3CGF:PAI-I	0.008 ± 0.055	-0.0085 ± 0.025	0.0565 ± 0.087	0.0025 ± 0.046	0.0065 ± 0.033	0.028 ± 0.028	0.054 ± 0.0085	0.0025 ± 0.032	-0.0145 ± 0.00071	-0.001 ± 0.023	0.0165 ± 0.056	-0.008 ± 0.045	-0.012 ± 0.011	-0.016 ± 0.0099	0 ± 0.038	0.0065 ± 0.052	0.0185 ± 0.016	0.005 ± 0.033	-0.45 ± 0.26	-0.018 ± 0.071	-0.021 ± 0.12	0.0115 ± 0.1	0.03 ± 0.069	-0.002 ± 0.042	-0.027 ± 0.05	0.0165 ± 0.0078	0.0185 ± 0.005	-0.004 ± 0.018	0.0075 ± 0.012	0.011 ± 0.018

Source: the supplement of paper PMC10331698
